# Measured values published in the supplement of paper PMC5949888.
# ± gives the standard deviation of the averaged measurements. Most values lie at the floor of the assay. Slopes are relative: functional sequences can read slightly below zero.
# System: Saccharomyces cerevisiae PS128 hsf1 delta, HSF1(1-493) fusion
# Assay: growth estimate (transactivation domain function in HSF1 fusion, heat-shock survival) (a.u. (slope of normalised read count over time)); higher = stronger growth at 37°C, i.e. more transactivation activity
# Conditions: library: random library
row,Substance,growth estimate
1,DPYRMVRTFWKFGFSCCSGK,< -0.25
2,TKVNLANARPLRLIASIIVP,< -0.25
3,VSKSPKLVLLREL,< -0.25
4,RSWVSF,< -0.25
5,CWPSEAATGASPCGLYVTLS,< -0.25
6,SVCLLRLLVSTCDCLLGPLH,< -0.25
7,SHH,-0.248 ± 0.003
8,YGRGFKC,< -0.25
9,RGSMEKISWTSD,< -0.25
10,LTLPQREAGSVLDLDHRYPQ,< -0.25
11,TLWWGVRLSTRVRKMAARRI,< -0.25
12,LACSGTYKPLGEEWKDPLPS,< -0.25
13,SHGKERRRVCGKRGSWTGWW,-0.246
14,AWVMVRGALEASVGYSRNLL,< -0.25
15,SGTRGPCKHVMIGRGDVACP,< -0.25
16,QMGRPTGGPRVECLTRI,< -0.25
17,YVLVCLGTASPV,< -0.25
18,LPKSQCVCPPLGSPVGVLGI,< -0.25
19,TFSVR,< -0.25
20,GYAGAL,< -0.25
21,DQLS,< -0.25
22,KTAR,< -0.25
23,GWG,< -0.25
24,IEYILARAWFQMDRLMALVE,< -0.25
25,GDNAPREASYFWCVRIFRLP,< -0.25
26,SYGQCPSP,< -0.25

# No new results follow: entries from further up.
row,Substance,growth estimate
6,SVCLLRLLVSTCDCLLGPLH,< -0.25
7,SHH,-0.248 ± 0.003
8,YGRGFKC,< -0.25
9,RGSMEKISWTSD,< -0.25
10,LTLPQREAGSVLDLDHRYPQ,< -0.25
11,TLWWGVRLSTRVRKMAARRI,< -0.25
12,LACSGTYKPLGEEWKDPLPS,< -0.25

# Additional results.

row,Substance,growth estimate
1,LFREKALVSWLRHCSS,< -0.25
2,AQGVSITRQRTHGSTRMLNE,< -0.25
3,SHSPVCGPRASGARVQYATS,< -0.25
4,GVVSSNWSVSDPQASHTKRC,< -0.25
5,EVRIVEDDDCE,< -0.25
6,RHLS,< -0.25
7,ISLSPCAT,< -0.25
8,YELAERVARKKPREHRVCLL,< -0.25
9,STLEALPMTADAGMPTLARD,< -0.25
10,LAITKGGAVQRYRTMVLVSV,< -0.25
11,QRGEFVPTYVVGLKTRRHTT,< -0.25
12,LAGIWLIGVGDPGPVGETKD,< -0.25
13,NERGGRICGRHLEIAHLLEP,< -0.25
14,LIPGSQALVLRERGTVLLVA,< -0.25
15,HAEGVPEQALIIRIPNPGAP,< -0.25
16,ICSQRVTRHACKRHLRQGWL,< -0.25
17,KLKPSLVHRAHMSWRAVKGA,< -0.25
18,SVSY,< -0.25
19,PADYLISTLPILRAS,< -0.25
20,NDLDIK,< -0.25
21,AEGGSWIWWVSD,< -0.25
22,IRPMSLNLQSSRRRTSQLGN,< -0.25
23,RNRVSLS,< -0.25
24,GVHSLPP,< -0.25
25,YSGILRKES,< -0.25
26,KGRSFTALSLAALYYMDR,< -0.25

row,Substance,growth estimate
1,SEVGKLRVSGSYGSFTPSLA,< -0.25
2,QRERSACEIRWPTARLQWRG,< -0.25
3,LWNNRTGHGLH,< -0.25
4,RVVQMQHRRALYARETGRIR,< -0.25
5,SRRCPFNRFGKARPTFNICL,-0.25
6,ITI,< -0.25
7,PQFGCRKAATSWASSRQART,-0.245
8,NTQIA,< -0.25
9,KPCAHEMGDSPETLPLKFDG,< -0.25
10,SSFSGRFDRCTYSNHGFLGR,< -0.25
11,VAVAPEFYAGSRSLGPARCK,< -0.25
12,TGTINIFGAAGHNIGRALTA,< -0.25
13,NRKWSMLG,< -0.25
14,ESRVMIIVGPQRRLHSVMPE,< -0.25
15,RIRGALAVGIRPALLKGQRS,< -0.25
16,GWVSLTRHTGLAL,< -0.25
17,SWYICCPYHVWCALDRTLAG,< -0.25
18,VFCQISDRVLDGTHPAILFH,< -0.25
19,TKRSDVQILTPCVGRSPLFA,< -0.25
20,RAEAPVRQARERTTEKLRAP,< -0.25
21,SPTGTGSQTVLCRLARCPNV,< -0.25
22,PTKRAERPEPSNLLALAGGT,< -0.25
23,SLTSMLR,< -0.25
24,LTFNFSLPRPS,< -0.25
25,SRCYLYGRRRSQRRPAITRA,< -0.25
26,LGITCSKCTSSRCSRSLLPS,< -0.25

row,Substance,growth estimate
1,IRCPARR,< -0.25
2,LKNACRGCFRAAWTGSIRQM,< -0.25
3,ITSQSNINRFMLIHFTH,< -0.25
4,VTRPSGS,< -0.25
5,GTHLQLQGVLVDQYRVALVQ,< -0.25
6,FLLDFYTRYHTASEERGSVD,-0.249
7,WSVAEA,< -0.25
8,AVR,< -0.25
9,IDIRD,-0.0635
10,LPKSRGVSFPFRNTRRSIHI,< -0.25
11,GARLAT,< -0.25
12,VLFRASFIWHHLVTSEIWAF,< -0.25
13,TPVLTDTRQMLEGAQTAGSA,< -0.25
14,GGWTTVRGGTCLPSFSQRIV,< -0.25
15,GVGGVNDQRTGSFSLVFFHW,< -0.25
16,LGCFGERSFRVHILGT,< -0.25
17,NVKDSCKRTTEWKASDLVTG,< -0.25
18,YKFHEGSR,-0.241
19,LSSPSLSSRENAHRISEPGR,< -0.25
20,KASVG,< -0.25
21,ARVNS,< -0.25
22,GLVTSEVNGTAW,< -0.25
23,SEGLPLTFSLAVPLTSVGID,< -0.25
24,KILFVCGGRRREERDLFLLR,< -0.25
25,PGPLGKEFTVWVGKLSELVS,< -0.25
26,FVPSGGHLAYDYVGGPSRNP,< -0.25

row,Substance,growth estimate
1,VGFGTMESSTLLINVILPHR,< -0.25
2,GCTALPRRPPRRGIKFSQWR,< -0.25
3,PWPYVSVYPADIGFTPAEC,< -0.25
4,RIEGPGGLKVGEPLMWFGPP,< -0.25
5,QPSCS,< -0.25
6,GPRSWICRAHGVLPQLNCVP,< -0.25
7,LYPRSILVIAYLYSASLTHR,< -0.25
8,PHLYRRS,< -0.25
9,VQKALSKLSSSEMDRT,< -0.25
10,RPAVCFHVRLSVGYNRTVSA,< -0.25
11,LSGVHSEASDTNSRIGEVLG,< -0.25
12,SSPA,< -0.25
13,GKSDRGRDPQDESAGGCPRP,< -0.25
14,PGSCHTQIWWRFTYIAAMSV,< -0.25
15,VPLTLFTREHDWLRLMLSQG,< -0.25
16,DIVQVIVLGLLYE,< -0.25
17,DKLFRTPDHE,< -0.25
18,RGVLWRRYLDRSSLK,< -0.25
19,LRLYFPNL,< -0.25
20,IESLRCSSKPLSISYGFPSW,< -0.25
21,VLLLLLLCENPVTVQVDAGT,< -0.25
22,LCGDTCETRTASTRLK,< -0.25
23,QYHLNACNLPL,< -0.25
24,SRISSKVVFGLFDGLCKYLS,< -0.25
25,VEASTDTPIACFSHGCRSGQ,< -0.25
26,SRSASGLRQRRNLQGTLAGG,< -0.25

# In another format: results already given
row	Substance	growth estimate
2	GCTALPRRPPRRGIKFSQWR	< -0.25
3	PWPYVSVYPADIGFTPAEC	< -0.25
4	RIEGPGGLKVGEPLMWFGPP	< -0.25

# Further entries.

row,Substance,growth estimate
1,NWQGPAATISIEPRRELLGI,< -0.25
2,DYTDGQIEGGHTPCVRLGSK,< -0.25
3,MVPILLRGCQSGRDNCAELS,< -0.25
4,HDQSRAGVSRVGIFYTTSSP,< -0.25
5,PGLDESSIRVYLRLAH,< -0.25
6,LIDHDWPAPEDACD,< -0.25
7,TLDAQERRPE,-0.221
8,RVS,< -0.25
9,PPTVGSDGIFGWVRAFRIPL,< -0.25
10,KGIRVEESYDEQCHKRFTC,< -0.25
11,GGNLFAAAALIVNPKK,< -0.25
12,GYLGRIVSATNIYGPSGPTG,< -0.25
13,LQRTSTASHGDSCAASGPFC,< -0.25
14,FGLLGPVRSQVTTDAGHRSI,< -0.25
15,DFL,< -0.25
16,TTSGWP,< -0.25
17,RSDQGSFGQGMSGRIRTHES,< -0.25
18,RLRELTSQAEVRSTIELTSD,< -0.25
19,TAIFFAVNIMRSGRCNRRTR,< -0.25
20,LGLNRIVGGAPVGLCNP,< -0.25
21,ASVIRSTAPRYGFDRINYPL,< -0.25
22,FCRPPVSALRRLMLRGWPID,< -0.25
23,SGSFLVSLHGGLHKRYHVHD,-0.241
24,HSRGGPQLSE,< -0.25
